Here are results for two compounds from article PMC10694292, “Increased sinusoidal export of drug glucuronides is a compensative mechanism in liver cirrhosis of mice” (Frontiers in Pharmacology, 2023).

The conditions of data set [1]: human, cited from earlier work.
For data set [2] the following is noted: isolated perfused rat liver; ref Evans et al., 1999; cited from earlier work.
A short description of data set [3]: Drug cocktail i.v. in CCl4-cirrhotic and control mice: plasma concentrations and AUC. Conditions: 15-120 min after cocktail; prediction with CYP activity at 11%.

The structures appear in SMILES notation. Where two headings read alike, the source gives them in different places.

For `CN1CC[C@]23c4c5ccc(O)c4O[C@H]2[C@@H](O)C=C[C@H]3[C@H]1C5` [Morphine, morphine], the Fraction unbound is 0.535 in data set [1] (experimental, ref Vree and Verwey-van Wissen); 0.75 in data set [1] (albumin, ref Edginton et al., 2006).
In the case of `CN1CC[C@]23c4c5ccc(O[C@@H]6O[C@H](C(=O)O)[C@@H](O)[C@H](O)[C@H]6O)c4O[C@H]2[C@@H](O)C=C[C@H]3[C@H]1C5` [M3G, morphine-3-glucuronide], the Fraction unbound in data set [1] (DrugBank, ref Wishart et al., 2017) is given as 0.9. In addition, the “Fraction formed in the hepatocytes excreted to bile” value in data set [2] was 0.3-0.5. For the same compound, the “Measured plasma concentrations in cirrhotic mice vs PBPK-predicted concentrations” value in data set [3] is reported as “much higher”.
